Data from patent publication US5688946A, “Amino acid derivatives having renin inhibiting activity” (Hoffmann La Roche Inc., priority 1989, dated 1997).
For at least one compound, name, drawing or mass did not settle the structure.

Biological target: T1, human renin (Homo sapiens, UniProt P00797)
T1 sequence (P00797 67-406): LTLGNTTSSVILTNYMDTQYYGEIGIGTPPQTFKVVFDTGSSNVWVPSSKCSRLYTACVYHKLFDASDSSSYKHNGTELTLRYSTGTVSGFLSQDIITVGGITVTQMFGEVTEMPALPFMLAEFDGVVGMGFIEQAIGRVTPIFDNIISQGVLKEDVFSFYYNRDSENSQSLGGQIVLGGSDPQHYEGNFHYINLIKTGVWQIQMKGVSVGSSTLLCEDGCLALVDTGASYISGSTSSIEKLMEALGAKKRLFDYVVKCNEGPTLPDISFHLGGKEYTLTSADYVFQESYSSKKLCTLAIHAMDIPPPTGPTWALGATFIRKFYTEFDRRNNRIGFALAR
Experiment: In vitro test with pure human renin
Format: biochemical
Settings: human tetradecapeptide renin substrate (hTD), pH 7.4, three hours at 37° C., angiotensin I via RIA
Protocol: In vitro test with pure human renin
The test is carried out in Eppendorf test tubes. The incubation mixture consists of (1) 100 μl of human renin in buffer A (0.1M sodium phosphate solution, pH 7.4, containing 0.1% bovine serum albumin, 0.1% sodium azide and 1 mM ethylenediaminetetraacetic acid), sufficient for a renin activity of 2-3 ng of angiotensin I/ml/hr.; (2) 145 μl of buffer A; (3) 30 μl of 10 μM human tetradecapeptide renin substrate (hTD) in 10 mM hydrochloric acid; (4) 15 μl of dimethyl sulphoxide with or without inhibitor and (5) 10 μl of a 0.03 molar solution of hydroxyquinoline sulphate in water.
The samples are incubated for three hours at 37° C. or 4° C. in triplicate. 2×100 μl samples per experimental test tube are used in order to measure the production of angiotensin I via RIA (standard radioimmunoassay; clinical assay solid phase kit). Cross reactivities of the antibody used in the RIA are: angiotensin I 100%; angiotensin II 0.0013%; hTD (angiotensin I-Val-Ile-His-Ser-OH) 0.09%. The production of angiotensin I is determined by the difference between the experiment at 37° C. and that at 4° C.
The following controls are carried out:
(a) Incubation of hTD samples without renin and without inhibitor at 37° C. and 4° C. […]
In each sample the base value of the angiotensin I production is subtracted from the angiotensin I production which is determined. […]

## CC(C)(C)S(=O)(=O)C[C@@H](Cc1ccccc1)C(=O)N[C@@H](Cc1cnc[nH]1)C(=O)N[C@@H](CC1CCCCC1)[C@@H](O)C1CN(C2CC2)C(=O)O1 (single isomer, unassigned) [C, (S)-α-[(S)-α-[(tert-Butylsulphonyl)methyl]hydrocinnamamido]-N-[(1S,2R)-2-(cyclohexylmethyl)-2-[(R or S)-3-cyclopropyl-2-oxo-5-oxazolidinyl]-2-hydroxyethyl]-imidazole-4-propionamide]
  IC50 -values: 0 0009 μmol/lt.
